Results are given in words; binding and its absence hold for the method and conditions named. In cells and extracts the contact can be indirect. Some results given as binding are weak or reduced against the parent protein; the word gives no strength. Sequences can lack the tags named with a protein.

The experiment concerns the target T1, GST-tagged iASPP CTD (UniProt Q8WUF5).
T1 sequence: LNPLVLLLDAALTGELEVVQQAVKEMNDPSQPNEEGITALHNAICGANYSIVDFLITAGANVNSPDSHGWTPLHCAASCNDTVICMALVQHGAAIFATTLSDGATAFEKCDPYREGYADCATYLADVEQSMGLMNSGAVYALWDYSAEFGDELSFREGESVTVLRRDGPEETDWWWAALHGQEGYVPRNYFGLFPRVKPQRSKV
Description: pull-down; purified GST-tagged ASPP CTDs immobilised on magnetic glutathione agarose beads; N-terminally Myc-tagged prey in vitro translated in RRL; 3 h at 4 °C; 50 mM Tris pH 8.0, 150 mM NaCl, 0.1% Tween-20; WB with α-Myc; only the target purified.

B1: Myc-tagged ΔNp63α WT (protein, UniProt Q9H3D4-2 1-586)
chain: MLYLENNAQTQFSEPQYTNLGLLNSMDQQIQNGSSSTSPYNTDHAQNSVTAPSPYAQPSSTFDALSPSPAIPSNTDYPGPHSFDVSFQQSSTAKSATWTYSTELKKLYCQIAKTCPIQIKVMTPPPQGAVIRAMPVYKKAEHVTEVVKRCPNHELSREFNEGQIAPPSHLIRVEGNSHAQYVEDPITGRQSVLVPYEPPQVGTEFTTVLYNFMCNSSCVGGMNRRPILIIVTLETRDGQVLGRRCFEARICACPGRDRKADEDSIRKQQVSDSTKNGDGTKRPFRQNTHGIQMTSIKKRRSPDDELLYLPVRGRETYEMLLKIKESLELMQYLPQHTIETYRQQQQQQHQHLLQKQTSIQSPSSYGNSSPPLNKMNSMNKLPSVSQLINPQQRNALTPTTIPDGMGANIPMMGTHMPMAGDMNGLSPTQALPPPLSMPSTSHCTPPPPYPTDCSIVSFLARLGCSSCLDYFTTQGLTTIYQIEHYSMDDLASLKIPEQFRHAIWKGILDHRQLHEFSSPSHLLRTPSSASTVSVGSSETRGERVIDAVRFTLRQTISFPPRDEWNDFNFDMDARRNKQQRIKEEGE
Take B1: the binding entry is listed as “binds”.

B2: Myc-tagged ΔNp73α WT (protein, UniProt O15350-8 1-587)
chain: MLYVGDPARHLATAQFNLLSSTMDQMSSRAASASPYTPEHAASVPTHSPYAQPSSTFDTMSPAPVIPSNTDYPGPHHFEVTFQQSSTAKSATWTYSPLLKKLYCQIAKTCPIQIKVSTPPPPGTAIRAMPVYKKAEHVTDVVKRCPNHELGRDFNEGQSAPASHLIRVEGNNLSQYVDDPVTGRQSVVVPYEPPQVGTEFTTILYNFMCNSSCVGGMNRRPILIIITLEMRDGQVLGRRSFEGRICACPGRDRKADEDHYREQQALNESSAKNGAASKRAFKQSPPAVPALGAGVKKRRHGDEDTYYLQVRGRENFEILMKLKESLELMELVPQPLVDSYRQQQQLLQRPSHLQPPSYGPVLSPMNKVHGGMNKLPSVNQLVGQPPPHSSAATPNLGPVGPGMLNNHGHAVPANGEMSSSHSAQSMVSGSHCTPPPPYHADPSLVSFLTGLGCPNCIEYFTSQGLQSIYHLQNLTIEDLGALKIPEQYRMTIWRGLQDLKQGHDYSTAQQLLRSSNAATISIGGSGELQRQRVMEAVHFRVRHTITIPNRGGPGGGPDEWADFGFDLPDCKARKQPIKEEFTEAEIH
B2: the binding result was “binds”.

The record behind these values is article PMC11704248, “Alternative splicing in the DBD linker region of p63 modulates binding to DNA and iASPP in vitro” (Cell Death & Disease, 2025).
